Results are given in words; binding and its absence hold for the method and conditions named. Binding seen in cells or lysates may run through a third protein. Some entries that bind do so weakly or less than the wild type. For some assays here: Sequences can lack the tags named with a protein.
T1: 3xFLAG::SMRC-1 (C. elegans) (UniProt Q8MNV7)
T1 sequence: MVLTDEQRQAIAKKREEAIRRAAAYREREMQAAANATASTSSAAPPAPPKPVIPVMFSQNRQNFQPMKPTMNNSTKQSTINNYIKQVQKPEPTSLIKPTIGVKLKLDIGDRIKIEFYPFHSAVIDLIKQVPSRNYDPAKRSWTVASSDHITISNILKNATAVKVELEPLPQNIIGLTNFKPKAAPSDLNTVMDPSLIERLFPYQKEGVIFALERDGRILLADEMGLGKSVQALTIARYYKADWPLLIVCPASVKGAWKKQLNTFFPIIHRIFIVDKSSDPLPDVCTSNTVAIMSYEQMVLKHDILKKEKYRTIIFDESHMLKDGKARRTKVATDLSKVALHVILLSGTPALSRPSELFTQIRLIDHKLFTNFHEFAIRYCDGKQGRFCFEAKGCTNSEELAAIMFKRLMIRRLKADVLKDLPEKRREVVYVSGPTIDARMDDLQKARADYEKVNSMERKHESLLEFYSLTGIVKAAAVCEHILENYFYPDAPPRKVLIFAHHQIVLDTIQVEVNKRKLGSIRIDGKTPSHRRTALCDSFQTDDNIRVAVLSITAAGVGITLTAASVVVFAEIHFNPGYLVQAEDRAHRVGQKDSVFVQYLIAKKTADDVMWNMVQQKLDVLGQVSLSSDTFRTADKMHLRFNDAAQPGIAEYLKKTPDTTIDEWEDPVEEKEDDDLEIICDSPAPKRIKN

T2: MET-2 (methyltransferase-2) (C. elegans (endogenous in adult worms)) (UniProt P34544)
T2 sequence: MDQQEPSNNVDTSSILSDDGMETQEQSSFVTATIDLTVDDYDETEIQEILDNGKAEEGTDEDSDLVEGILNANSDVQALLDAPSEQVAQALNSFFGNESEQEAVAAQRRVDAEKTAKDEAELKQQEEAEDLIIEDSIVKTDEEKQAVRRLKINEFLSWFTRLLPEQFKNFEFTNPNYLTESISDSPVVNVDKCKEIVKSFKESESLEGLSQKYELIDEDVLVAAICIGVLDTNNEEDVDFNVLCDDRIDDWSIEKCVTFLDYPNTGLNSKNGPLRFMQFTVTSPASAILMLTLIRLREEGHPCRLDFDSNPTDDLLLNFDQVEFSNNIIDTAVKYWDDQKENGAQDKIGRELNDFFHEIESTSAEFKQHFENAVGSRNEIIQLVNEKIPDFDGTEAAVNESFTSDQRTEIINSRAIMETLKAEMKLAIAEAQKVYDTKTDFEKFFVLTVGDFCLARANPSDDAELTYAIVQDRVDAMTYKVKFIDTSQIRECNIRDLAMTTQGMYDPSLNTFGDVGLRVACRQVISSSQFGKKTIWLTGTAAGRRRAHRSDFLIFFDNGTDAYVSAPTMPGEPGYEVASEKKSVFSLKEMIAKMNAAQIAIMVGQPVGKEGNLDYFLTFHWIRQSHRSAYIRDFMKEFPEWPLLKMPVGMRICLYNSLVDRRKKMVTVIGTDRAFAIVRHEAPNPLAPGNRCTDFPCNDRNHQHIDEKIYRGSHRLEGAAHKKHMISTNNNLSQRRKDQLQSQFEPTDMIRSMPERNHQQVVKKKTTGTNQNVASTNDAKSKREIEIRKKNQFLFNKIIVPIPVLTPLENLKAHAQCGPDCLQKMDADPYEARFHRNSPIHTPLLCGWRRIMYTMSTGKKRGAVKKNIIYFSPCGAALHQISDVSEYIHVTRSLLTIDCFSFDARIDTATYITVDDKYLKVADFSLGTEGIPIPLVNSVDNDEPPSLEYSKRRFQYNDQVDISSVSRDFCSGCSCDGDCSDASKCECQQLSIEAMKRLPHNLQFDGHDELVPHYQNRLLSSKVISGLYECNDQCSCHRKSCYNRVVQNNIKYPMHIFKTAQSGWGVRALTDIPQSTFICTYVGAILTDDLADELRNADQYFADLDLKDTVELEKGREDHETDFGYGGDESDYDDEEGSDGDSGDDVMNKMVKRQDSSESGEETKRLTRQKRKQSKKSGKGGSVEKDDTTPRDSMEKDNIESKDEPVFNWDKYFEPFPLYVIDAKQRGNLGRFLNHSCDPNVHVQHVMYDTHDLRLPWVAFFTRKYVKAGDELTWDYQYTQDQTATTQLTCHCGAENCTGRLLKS


Assays:
[1] = target: T1, 3xFLAG::SMRC-1 (C. elegans); test: co-IP; IP with anti-FLAG antibody from extract of endogenously tagged 3xflag::smrc-1 adults; blot probed with anti-MET-2; wildtype extract as control
[2] = target: T2, MET-2 (methyltransferase-2) (C. elegans (endogenous in adult worms)); test: co-IP; IP with anti-MET-2 polyclonal antibody from nuclear extract of him-8(e1489) adults; met-2(n4256) as negative control; how SMRC-1 was identified in the precipitate is not told

| binding [1] | binding [2] | Binder |
| --- | --- | --- |
| binds | – | MET-2 (methyltransferase-2) (protein, UniProt P34544 1-1304) MDQQEPSNNVDTSSILSDDGMETQEQSSFVTATIDLTVDDYDETEIQEILDNGKAEEGTDEDSDLVEGILNANSDVQALLDAPSEQVAQALNSFFGNESEQEAVAAQRRVDAEKTAKDEAELKQQEEAEDLIIEDSIVKTDEEKQAVRRLKINEFLSWFTRLLPEQFKNFEFTNPNYLTESISDSPVVNVDKCKEIVKSFKESESLEGLSQKYELIDEDVLVAAICIGVLDTNNEEDVDFNVLCDDRIDDWSIEKCVTFLDYPNTGLNSKNGPLRFMQFTVTSPASAILMLTLIRLREEGHPCRLDFDSNPTDDLLLNFDQVEFSNNIIDTAVKYWDDQKENGAQDKIGRELNDFFHEIESTSAEFKQHFENAVGSRNEIIQLVNEKIPDFDGTEAAVNESFTSDQRTEIINSRAIMETLKAEMKLAIAEAQKVYDTKTDFEKFFVLTVGDFCLARANPSDDAELTYAIVQDRVDAMTYKVKFIDTSQIRECNIRDLAMTTQGMYDPSLNTFGDVGLRVACRQVISSSQFGKKTIWLTGTAAGRRRAHRSDFLIFFDNGTDAYVSAPTMPGEPGYEVASEKKSVFSLKEMIAKMNAAQIAIMVGQPVGKEGNLDYFLTFHWIRQSHRSAYIRDFMKEFPEWPLLKMPVGMRICLYNSLVDRRKKMVTVIGTDRAFAIVRHEAPNPLAPGNRCTDFPCNDRNHQHIDEKIYRGSHRLEGAAHKKHMISTNNNLSQRRKDQLQSQFEPTDMIRSMPERNHQQVVKKKTTGTNQNVASTNDAKSKREIEIRKKNQFLFNKIIVPIPVLTPLENLKAHAQCGPDCLQKMDADPYEARFHRNSPIHTPLLCGWRRIMYTMSTGKKRGAVKKNIIYFSPCGAALHQISDVSEYIHVTRSLLTIDCFSFDARIDTATYITVDDKYLKVADFSLGTEGIPIPLVNSVDNDEPPSLEYSKRRFQYNDQVDISSVSRDFCSGCSCDGDCSDASKCECQQLSIEAMKRLPHNLQFDGHDELVPHYQNRLLSSKVISGLYECNDQCSCHRKSCYNRVVQNNIKYPMHIFKTAQSGWGVRALTDIPQSTFICTYVGAILTDDLADELRNADQYFADLDLKDTVELEKGREDHETDFGYGGDESDYDDEEGSDGDSGDDVMNKMVKRQDSSESGEETKRLTRQKRKQSKKSGKGGSVEKDDTTPRDSMEKDNIESKDEPVFNWDKYFEPFPLYVIDAKQRGNLGRFLNHSCDPNVHVQHVMYDTHDLRLPWVAFFTRKYVKAGDELTWDYQYTQDQTATTQLTCHCGAENCTGRLLKS |
| – | binds | SMRC-1 (protein, UniProt Q8MNV7 1-690) MVLTDEQRQAIAKKREEAIRRAAAYREREMQAAANATASTSSAAPPAPPKPVIPVMFSQNRQNFQPMKPTMNNSTKQSTINNYIKQVQKPEPTSLIKPTIGVKLKLDIGDRIKIEFYPFHSAVIDLIKQVPSRNYDPAKRSWTVASSDHITISNILKNATAVKVELEPLPQNIIGLTNFKPKAAPSDLNTVMDPSLIERLFPYQKEGVIFALERDGRILLADEMGLGKSVQALTIARYYKADWPLLIVCPASVKGAWKKQLNTFFPIIHRIFIVDKSSDPLPDVCTSNTVAIMSYEQMVLKHDILKKEKYRTIIFDESHMLKDGKARRTKVATDLSKVALHVILLSGTPALSRPSELFTQIRLIDHKLFTNFHEFAIRYCDGKQGRFCFEAKGCTNSEELAAIMFKRLMIRRLKADVLKDLPEKRREVVYVSGPTIDARMDDLQKARADYEKVNSMERKHESLLEFYSLTGIVKAAAVCEHILENYFYPDAPPRKVLIFAHHQIVLDTIQVEVNKRKLGSIRIDGKTPSHRRTALCDSFQTDDNIRVAVLSITAAGVGITLTAASVVVFAEIHFNPGYLVQAEDRAHRVGQKDSVFVQYLIAKKTADDVMWNMVQQKLDVLGQVSLSSDTFRTADKMHLRFNDAAQPGIAEYLKKTPDTTIDEWEDPVEEKEDDDLEIICDSPAPKRIKN |

— PMC6402707
